“And” between values parts separate entries of the source, which are not always exact repeats. Equal entries are not always repeated. Further values from the same series stand in other lists.

In this assay the test system is MC38 tumours. Conditions: individual mice, day 5.

As for `COc1cc2cc(C(=O)CCC(=O)O)sc2cc1OC` [MSA2], the “Tumor Size” value is 81.683 mm^3 and 103.155 mm^3.

The values are drawn from publication PMC12669040, “Tumour-specific STING agonist synthesis via a two-component prodrug system” (Nature Chemistry, 2025).
